{
  "source": "patent US20230173014A1",
  "about": "(GRANDES VINOS Y VIÑEDOS SA, priority 2021, published 2023)",
  "note": "Where a sequence shows no end group, the ends are not given.",
  "data": [
    {"assay": "peptide synthesis", "conditions": "whole synthesis", "units": {"purity (crude or final not stated)": "%"}, "values": [
      {"sequence": "TVTNPARIA (Synthesized peptide P3)", "purity (crude or final not stated)": 96.4},
      {"sequence": "FKTTDQQTRTTVA (Synthesized peptide P1)", "purity (crude or final not stated)": 97.8},
      {"sequence": "LDSPSEGRAPGAD (Synthesized peptide P6)", "purity (crude or final not stated)": 98.5},
      {"sequence": "NPKLVTIV (Synthesized peptide P2)", "purity (crude or final not stated)": 99.2},
      {"sequence": "LDSPSEGRAPG (Synthesized peptide P5)", "purity (crude or final not stated)": 96.9}
    ]}
  ]
}
